PubChem BioAssay AID652272, Drosophila RNAi Screening Center, 2013

Test: 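Finding fly genes that regulate Hedgehog signal transduction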 (primary screen)
System: Drosophila clone 8 (Cl8) cells
Reagent: long dsRNA against Drosophila genes
Detection: 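Firefly light from a Hedgehog-responsive ptc promoter reporter and Renilla reference light, both read on a plate reader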
Scale: firefly Hh reporter signal: higher = more ptc reporter light; Renilla reference signal: higher = more Renilla control light
Rule for the call: 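Called a hit if the two-replicate mean z-score lies below -2 or above +3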
Calls: active = hit: reporter lowered or raised; inactive = not a hit
The deposit covers about 21,000 reagents; this is an unselected part of those that have a named target and a result. Of all reagents, 503 (2.4%) got an active call. 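Raw plate light values, not normalised; calls rest on replicate z-scores that were not deposited; hits include reporter decreases as well as increases.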 A number with no mark means an inactive call. Reagents against one gene are numbered here. A plus sign joins genes that one reagent is predicted to hit. The record does not give: the amount of reagent, the time to read-out.

no.	gene	dsRNA no.	firefly Hh reporter signal, replicate 1	firefly Hh reporter signal, replicate 2	firefly Hh reporter signal, replicate 3	Renilla reference signal, replicate 1	Renilla reference signal, replicate 2
1	Pdhb (Pyruvate dehydrogenase E1 beta subunit)	1	99197	75104		2375	2308
2	CG12692	1	92310	2.15e5		3320	7373
3	CG6125	1	69740	97405		2498	2770
4	CR14033 (pseudo)	1	94371	68442		4613	2935
5	CG42541	1	75494	1.39e5		2416	4461
6	CG42541	2	18944 (active)	23610		1202	1578
7	CG42541	3	68326	1.90e5		2096	7529
8	aru (arouser)	1	1.71e5	1.08e5		3977	2523
9	inaF-A	1	45936	1.83e5		1078	7280
10	CG32104	1	52056	64372	59139	5248	1848
11	CG32104	2	87121	1.00e5	59749	5777	3389
12	AANATL3 (Arylalkylamine N-acetyltransferase-like 3)	1	73608	67442		2196	5825
13	Tim10 + CG42497	1	96407	81160		3976	3133
14	CG42319	1	1.11e5	65952		2688	5028
15	CG42319	2	86485	47435		2285	3904
16	CG14315	1	5.18e5	72688		26346	1830

2 of these entries in another layout:
gene,dsRNA no.,"firefly Hh reporter signal, replicate 1","firefly Hh reporter signal, replicate 2","firefly Hh reporter signal, replicate 3","Renilla reference signal, replicate 1","Renilla reference signal, replicate 2"
aru (arouser),1,1.71e5,1.08e5,,3977,2523
inaF-A,1,45936,1.83e5,,1078,7280

More records follow.
no.	gene	dsRNA no.	firefly Hh reporter signal, replicate 1	firefly Hh reporter signal, replicate 2	firefly Hh reporter signal, replicate 3	Renilla reference signal, replicate 1	Renilla reference signal, replicate 2
17	Gs2 (Glutamine synthetase 2)	1	81236	2.53e5		3133	10082
18	dind (diamond)	1	80509	66328		3402	2746
19	CG8768	1	71072	51357		3173	2444
20	MAPk-Ak2 (MAP kinase activated protein-kinase-2)	1	79523	1.39e5		3017	5302
21	CG43106	1	93680	76187		1911	6565
22	Pex11ab (Peroxin 11a/b)	1	70938	55575		2161	4032
23	CG10839	1	1.30e5	56833		3562	5446
24	Sec61alpha (Sec61 alpha subunit)	1	89128	92512		4032	3307
25	KaiR1D (Kainate-type ionotropic glutamate receptor subunit 1D)	1	5.61e5	93483		29143	2224
26	Vps24 (Vacuolar protein sorting 24)	1	1.57e5	5.52e5	90616	6016	33424
27	RpS13 (Ribosomal protein S13)	1	20048 (active)	19770		1778	1875
28	kek1 (kekkon 1)	1	1.11e5	47044		3104	4305
29	Ir20a (Ionotropic receptor 20a)	1	48934	2.14e5		1747	9168
30	Cyp6a23 (Cytochrome P450 6a23)	1	1.12e5	68617		2976	5332
31	CG7091	1	2508	1.49e5		648	2500
32	CG7091	2	92634	96869		1384	2429
33	Fpgs1 (Folylpolyglutamate synthase 1)	1	1.04e5	2.29e5		3328	7744
34	thoc5	1	1.03e5	72723		4756	3077
35	CCT2 (Chaperonin containing TCP1 subunit 2)	1	63685	69808		2144	1944
36	Rbcn-3A (Rabconnectin-3A)	1	1.04e5	3.51e5		3512	12480
37	CG14297	1	5.30e5	1.40e5		26038	3877
38	CG33303	1	95623	56681		2547	5138
39	CG14647	1	1.56e5	1.01e5		6011	4592
